Experimental data: patent US20250109209A1
No constants are given. Whether binding was seen depends on the method and setting. Some results given as binding are weak or reduced against the parent protein; the word gives no strength.

By UniProt entry, the sequences of proteins in these tests, tags left out. Where a name states a change or a piece, a line headed by the entry shows the natural chain unless it says otherwise. Chains listed by the source or under a name are the forms on record and can include a tag or linker.
Cyno TL1A (G7PRK8, form named): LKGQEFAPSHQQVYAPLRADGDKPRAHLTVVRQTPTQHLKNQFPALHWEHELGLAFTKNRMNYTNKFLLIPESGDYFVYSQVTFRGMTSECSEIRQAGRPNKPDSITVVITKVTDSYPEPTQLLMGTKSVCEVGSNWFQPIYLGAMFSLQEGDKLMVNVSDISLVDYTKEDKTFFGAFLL

Target: Cyno TL1A (cyno) (UniProt G7PRK8)
Assay: SPR, Fab format

| Binder | binding |
| --- | --- |
| Antibody 1 (Fab format) (Fab, V domains shown) VH: QVQLQESGPGLVRPSQTLSLTCTVSGFDIQDTYMHWVRQRPGRGLEWMGRIEPAGGHTKYNPSLKSRVTITRDTSKNQVSLRLSSVTAADTAVYYCASSGGMPDLWGQGSLVTVSS VL: DIQMTQSPSSLSASVGDRVTITCRASQGVEYMYWYQQKPGKAPKLLIYGASNLASGVPSRFSGSGSGTDFTFTISSLQPEDIATYYCQQWEGNPRTFGQGTKVEIK | binds |
| Antibody 2 (Fab format) (Fab, V domains shown) VH: QVQLQESGPGLVRPSQTLSLTCTVSGLDPDDTYMHWVRQRPGRGLEWMGRIEPAGGHTKYNPSLKSRVTITRDTSKNQVSLRLSSVTAADTAVYYCVISGGLPDVWGQGSLVTVSS VL: DIQMTQSPSSLSASVGDRVTITCRASSSVSYMYWYQQKPGKAPKLLIYATSNLASGVPSRFSGSGSGTDFTFTISSLQPEDIATYYCQQWEGNPRTFGQGTKVEIK | binds |
| Antibody 3 (Fab format) (Fab, V domains shown) VH: QVQLQESGPGLVRPSQTLSLTCTVSGFDIQDTYMHWVRQRPGRGLEWMGRIEPAGGHTKYNPSLKSRVTITRDTSKNQVSLRLSSVTAADTAVYYCVRSGGLPDAWGQGSLVTVSS VL: DIQMTQSPSSLSASVGDRVTITCRASQGVRYMYWYQQKPGKAPKLLIYGASNLASGVPSRFSGSGSGTDFTFTISSLQPEDIATYYCQQWEGNPRTFGQGTKVEIK | binds |
| Antibody 4 (Fab format) (Fab, V domains shown) VH: QVQLQESGPGLVRPSQTLSLTCTVSGFDMADTYMHWVRQRPGRGLEWMGRIEPAGGHTKYNPSLKSRVTITRDTSKNQVSLRLSSVTAADTAVYYCVRSGGLPDMWGQGSLVTVSS VL: DIQMTQSPSSLSASVGDRVTITCRASSSVSYMYWYQQKPGKAPKLLIYGASNLASGVPSRFSGSGSGTDFTFTISSLQPEDIATYYCQQWEGNPRTFGQGTKVEIK | binds |
| Antibody 5 (Fab format) (Fab, V domains shown) VH: QVQLQESGPGLVRPSQTLSLTCTVSGFDMQDTYMHWVRQRPGRGLEWMGRIEPASGHTKYNPSLKSRVTITRDTSKNQVSLRLSSVTAADTAVYYCVRSGGLPDVWGQGSLVTVSS VL: DIQMTQSPSSLSASVGDRVTITCRASQGVMYMYWYQQKPGKAPKLLIYGASNLASGVPSRFSGSGSGTDFTFTISSLQPEDIATYYCQQWEGNPRTFGQGTKVEIK | binds |
| Antibody 6 (Fab format) (Fab, V domains shown) VH: QVQLQESGPGLVRPSQTLSLTCTVSGFDMADTYMHWVRQRPGRGLEWMGRIEPAGGHTKYNPSLKSRVTITRDTSKNQVSLRLSSVTAADTAVYYCVRSGGLPDMWGQGSLVTVSS VL: DIQMTQSPSSLSASVGDRVTITCRASQGVEYMYWYQQKPGKAPKLLIYSASNLASGVPSRFSGSGSGTDFTFTISSLQPEDIATYYCQQWEGNPRTFGQGTKVEIK | binds |
| Antibody 7 (Fab format) (Fab, V domains shown) VH: QVQLQESGPGLVRPSQTLSLTCTVSGFDMGDTYMHWVRQRPGRGLEWMGRIEPAAGHTKYNPSLKSRVTITRDTSKNQVSLRLSSVTAADTAVYYCVRSGGLPDIWGQGSLVTVSS VL: DIQMTQSPSSLSASVGDRVTITCRASQGVEYMYWYQQKPGKAPKLLIYGASNLASGVPSRFSGSGSGTDFTFTISSLQPEDIATYYCQQWEGNPRTFGQGTKVEIK | binds |
| Antibody 8 (Fab format) (Fab, V domains shown) VH: QVQLQESGPGLVRPSQTLSLTCTVSGFDMQSTYMHWVRQRPGRGLEWMGRIEPAGGHTKYNPSLKSRVTITRDTSKNQVSLRLSSVTAADTAVYYCVRSGGLPDVWGQGSLVTVSS VL: DIQMTQSPSSLSASVGDRVTITCRASSSVSYMYWYQQKPGKAPKLLIYGASNLASGVPSRFSGSGSGTDFTFTISSLQPEDIATYYCQQWEGNPRTFGQGTKVEIK | binds |
| Antibody 9 (Fab format) (Fab, V domains shown) VH: QVQLQESGPGLVRPSQTLSLTCTVSGFDIQDTYMHWVRQRPGRGLEWMGRIEPAGGHTKYNPSLKSRVTITRDTSKNQVSLRLSSVTAADTAVYYCVRSGGLPDAWGQGSLVTVSS VL: DIQMTQSPSSLSASVGDRVTITCRASQGVGYMYWYQQKPGKAPKLLIYSASNLASGVPSRFSGSGSGTDFTFTISSLQPEDIATYYCQQWEGNPRTFGQGTKVEIK | binds |
| Antibody 10 (Fab format) (Fab, V domains shown) VH: QVQLQESGPGLVRPSQTLSLTCTVSGLDPDDTYMHWVRQRPGRGLEWMGRIEPAGGHTKYNPSLKSRVTITRDTSKNQVSLRLSSVTAADTAVYYCVISGGLPDVWGQGSLVTVSS VL: DIQMTQSPSSLSASVGDRVTITCRASQGVEYMYWYQQKPGKAPKLLIYGASNLASGVPSRFSGSGSGTDFTFTISSLQPEDIATYYCQQWEGNPRTFGQGTKVEIK | binds |
| Antibody 11 (Fab format) (Fab, V domains shown) VH: QVQLQESGPGLVRPSQTLSLTCTVSGFDMGDTYMHWVRQRPGRGLEWMGRIEPAGGHTKYNPSLKSRVTITRDTSKNQVSLRLSSVTAADTAVYYCVRSGGMPDVWGQGSLVTVSS VL: DIQMTQSPSSLSASVGDRVTITCRASQGVEYMYWYQQKPGKAPKLLIYSASNLASGVPSRFSGSGSGTDFTFTISSLQPEDIATYYCQQWEGNPRTFGQGTKVEIK | binds |
| Antibody 12 (Fab format) (Fab, V domains shown) VH: QVQLQESGPGLVRPSQTLSLTCTVSGFDITDTYMHWVRQRPGRGLEWMGRIEPAGGHTKYNPSLKSRVTITRDTSKNQVSLRLSSVTAADTAVYYCVRSGGLPDVWGQGSLVTVSS VL: DIQMTQSPSSLSASVGDRVTITCRASQGVEYMYWYQQKPGKAPKLLIYSASNLASGVPSRFSGSGSGTDFTFTISSLQPEDIATYYCQQWEGNPRTFGQGTKVEIK | binds |
| Antibody 13 (Fab format) (Fab, V domains shown) VH: QVQLQESGPGLVRPSQTLSLTCTVSGFDYQDTYMHWVRQRPGRGLEWMGRIDPASGHTKYNPSLKSRVTITRDTSKNQVSLRLSSVTAADTAVYYCAVSGGMPDVWGQGSLVTVSS VL: DIQMTQSPSSLSASVGDRVTITCRASQGVEYMYWYQQKPGKAPKLLIYATSNLASGVPSRFSGSGSGTDFTFTISSLQPEDIATYYCQQWEGNPRTFGQGTKVEIK | binds |
| Antibody 15 (Fab format) (Fab, V domains shown) VH: QVQLQESGPGLVRPSQTLSLTCTVSGFDIQDTYMHWVRQRPGRGLEWMGRIEPAGGHTKYNPSLKSRVTITRDTSKNQVSLRLSSVTAADTAVYYCVRSGGLPDAWGQGSLVTVSS VL: DIQMTQSPSSLSASVGDRVTITCRASQGIYYMYWYQQKPGKAPKLLIYGASNLASGVPSRFSGSGSGTDFTFTISSLQPEDIATYYCQQWEGNPRTFGQGTKVEIK | binds |
| Antibody 16 (Fab format) (Fab, V domains shown) VH: QVQLQESGPGLVRPSQTLSLTCTVSGFDMQSTYMHWVRQRPGRGLEWMGRIEPAGGHTKYNPSLKSRVTITRDTSKNQVSLRLSSVTAADTAVYYCVRSGGLPDVWGQGSLVTVSS VL: DIQMTQSPSSLSASVGDRVTITCRASQGVEYMYWYQQKPGKAPKLLIYGASNLASGVPSRFSGSGSGTDFTFTISSLQPEDIATYYCQQWEGNPRTFGQGTKVEIK | binds |
| Antibody 17 (Fab format) (Fab, V domains shown) VH: QVQLQESGPGLVRPSQTLSLTCTVSGFDMGDTYMHWVRQRPGRGLEWMGRIEPAAGHTKYNPSLKSRVTITRDTSKNQVSLRLSSVTAADTAVYYCVRSGGLPDVWGQGSLVTVSS VL: DIQMTQSPSSLSASVGDRVTITCRASQGVEYMYWYQQKPGKAPKLLIYGASNLASGVPSRFSGSGSGTDFTFTISSLQPEDIATYYCQQWEGNPRTFGQGTKVEIK | binds |
